Four molecules from patent US20230101835A1 can be followed below.

Amino acid sequences for entries named in this document (tags omitted). Residues count along the entry.
UniProt P01024, residues 1002-1303: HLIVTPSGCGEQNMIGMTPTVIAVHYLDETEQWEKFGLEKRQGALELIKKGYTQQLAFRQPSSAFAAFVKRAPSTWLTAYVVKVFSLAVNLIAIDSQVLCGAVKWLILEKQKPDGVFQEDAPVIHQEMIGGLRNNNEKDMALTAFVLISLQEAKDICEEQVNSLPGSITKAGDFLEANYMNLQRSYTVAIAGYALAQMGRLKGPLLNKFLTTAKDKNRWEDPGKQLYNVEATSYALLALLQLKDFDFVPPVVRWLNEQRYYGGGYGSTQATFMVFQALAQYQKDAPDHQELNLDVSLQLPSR

These are yes or no findings as the source states them, for the method shown. Some entries that bind do so weakly or less than the wild type.

Test [1] concerns the target plasma derived C3b (UniProt P01024). The test is described as follows: ELISA on plate-immobilised plasma derived C3b, detection with polyclonal goat anti-human FH antibody, A450. (In general: An ELISA detects its analyte on a solid surface through an enzyme-linked reagent.)
Another test addresses recombinant C3d (UniProt P01024). The test is described as follows: ELISA on plate-immobilised recombinant C3d, detection with polyclonal goat anti-human FH antibody, A450.
The target of test [2] is plasma derived C3b (UniProt P01024). The test is described as follows: ELISA on plate-coated C3b (5 µg/ml).
For test [3], the target named is T1, recombinant human CRP (human) (UniProt P02741).
T1 sequence (looked up): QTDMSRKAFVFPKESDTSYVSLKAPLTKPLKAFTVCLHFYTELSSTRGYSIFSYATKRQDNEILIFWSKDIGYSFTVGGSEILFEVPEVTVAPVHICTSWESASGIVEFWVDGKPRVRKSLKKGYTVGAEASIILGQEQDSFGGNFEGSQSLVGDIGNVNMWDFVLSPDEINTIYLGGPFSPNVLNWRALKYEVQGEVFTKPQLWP
The test can be described thus: ELISA on plate-coated recombinant human CRP (2 µg/ml).

B1: FH^1-5∧18-20∧R1-2 (protein)
chain: EDCNELPPRRNTEILTGSWSDQTYPEGTQAIYKCRPGYRSLGNIIMVCRKGEWVALNPLRKCQKRPCGHPGDTPFGTFTLTGGNVFEYGVKAVYTCNEGYQLLGEINYRECDTDGWTNDIPICEVVKCLPVTAPENGKIVSSAMEPDREYHFGQAVRFVCNSGYKIEGDEEMHCSDDGFWSKEKPKCVEISCKSPDVINGSPISQKIIYKENERFQYKCNMGYEYSERGDAVCTESGWRPLPSCEEKSCDNPYIPNGDYSPLRIKHRTGDEITYQCRNGFYPATRGNTAKCTSTGWIPAPRCTSGSGGGGVDTTSCVNPPTVQNAYIVSRQMSKYPSGERVRYQCRSPYEMFGDEEVMCLNGNWTEPPQCKDSTGKCGPPPPIDNGDITSFPLSVYAPASSVEYQCQNLYQLEGNKRITCRNGQWSEPPKCLHPCVISREIMENYNIALRWTAKQKLYSRTGESVEFVCKRGYRLSSRSHTLRTTCWDGKLEYPTCAKRGTEATFCDFPKINHGILYDEEKYKPFSQVPTGEVFYYSCEYNFVSPSKSFWTRITCTEEGWSPTPKCLRLCFFPFVENGHSESSGQTHLEGDTVQIICNTGYRLQNNENNISCVERGWSTPPKCRSTDTS
modifications: glycosylation sites on FHR1 CCP domain 2 and FH CCP domain 18
On to B1, for which the binding result with plasma derived C3b [1] and in the test with recombinant C3d was “binds” in each case.

B2: CD-FHL1 (FH^1-5∧L6-L7∧R1-2) (protein)
chain: EDCNELPPRRNTEILTGSWSDQTYPEGTQAIYKCRPGYRSLGNIIMVCRKGEWVALNPLRKCQKRPCGHPGDTPFGTFTLTGGNVFEYGVKAVYTCNEGYQLLGEINYRECDTDGWTNDIPICEVVKCLPVTAPENGKIVSSAMEPDREYHFGQAVRFVCNSGYKIEGDEEMHCSDDGFWSKEKPKCVEISCKSPDVINGSPISQKIIYKENERFQYKCNMGYEYSERGDAVCTESGWRPLPSCEEKSCDNPYIPNGDYSPLRIKHRTGDEITYQCRNGFYPATRGNTAKCTSTGWIPAPRCTSGSGGGGVDTKHGGLYHENMRRPYFPVAVGKYYSYYCDEHFETPSGSYWDHIHCTQDGWSPAVPCLRKCYFPYLENGYNQNYGRKFVQGKSIDVACHPGYALPKAQTTVTCMENGWSPTPRCIRVSFTLGTEATFCDFPKINHGILYDEEKYKPFSQVPTGEVFYYSCEYNFVSPSKSFWTRITCTEEGWSPTPKCLRLCFFPFVENGHSESSGQTHLEGDTVQIICNTGYRLQNNENNISCVERGWSTPPKCRSTDTS
modifications: glycosylation site on FHR1 CCP domain 2
For the molecule B2, the binding entry (with plasma derived C3b [2]; in test [3]) was “binds” in each case.

B3: ND-FHL1 (FH^R1-2∧1-5∧L6-L7) (protein)
chain: EATFCDFPKINHGILYDEEKYKPFSQVPTGEVFYYSCEYNFVSPSKSFWTRITCTEEGWSPTPKCLRLCFFPFVENGHSESSGQTHLEGDTVQIICNTGYRLQNNENNISCVERGWSTPPKCRSTDTSVDEDCNELPPRRNTEILTGSWSDQTYPEGTQAIYKCRPGYRSLGNIIMVCRKGEWVALNPLRKCQKRPCGHPGDTPFGTFTLTGGNVFEYGVKAVYTCNEGYQLLGEINYRECDTDGWTNDIPICEVVKCLPVTAPENGKIVSSAMEPDREYHFGQAVRFVCNSGYKIEGDEEMHCSDDGFWSKEKPKCVEISCKSPDVINGSPISQKIIYKENERFQYKCNMGYEYSERGDAVCTESGWRPLPSCEEKSCDNPYIPNGDYSPLRIKHRTGDEITYQCRNGFYPATRGNTAKCTSTGWIPAPRCTSGSGGGGGTKHGGLYHENMRRPYFPVAVGKYYSYYCDEHFETPSGSYWDHIHCTQDGWSPAVPCLRKCYFPYLENGYNQNYGRKFVQGKSIDVACHPGYALPKAQTTVTCMENGWSPTPRCIRVSFTL
modifications: glycosylation site on FHR1 CCP domain 2
As for B3, the binding result (with plasma derived C3b [2]; in test [3]) was “binds” throughout.

B4: FH^R1-2∧1-5∧18-20 (protein)
chain: EATFCDFPKINHGILYDEEKYKPFSQVPTGEVFYYSCEYNFVSPSKSFWTRITCTEEGWSPTPKCLRLCFFPFVENGHSESSGQTHLEGDTVQIICNTGYRLQNNENNISCVERGWSTPPKCRSTDTSVDEDCNELPPRRNTEILTGSWSDQTYPEGTQAIYKCRPGYRSLGNIIMVCRKGEWVALNPLRKCQKRPCGHPGDTPFGTFTLTGGNVFEYGVKAVYTCNEGYQLLGEINYRECDTDGWTNDIPICEVVKCLPVTAPENGKIVSSAMEPDREYHFGQAVRFVCNSGYKIEGDEEMHCSDDGFWSKEKPKCVEISCKSPDVINGSPISQKIIYKENERFQYKCNMGYEYSERGDAVCTESGWRPLPSCEEKSCDNPYIPNGDYSPLRIKHRTGDEITYQCRNGFYPATRGNTAKCTSTGWIPAPRCTSGSGGGGGTTSCVNPPTVQNAYIVSRQMSKYPSGERVRYQCRSPYEMFGDEEVMCLNGNWTEPPQCKDSTGKCGPPPPIDNGDITSFPLSVYAPASSVEYQCQNLYQLEGNKRITCRNGQWSEPPKCLHPCVISREIMENYNIALRWTAKQKLYSRTGESVEFVCKRGYRLSSRSHTLRTTCWDGKLEYPTCAKR
modifications: glycosylation sites on FHR1 CCP domain 2 and FH CCP domain 18
Turning to B4, the binding result with plasma derived C3b [1] and with recombinant C3d was “binds” in each case.
